These are yes or no findings as the source states them, for the method shown. In cells and extracts the contact can be indirect. Sequences can lack the tags named with a protein.
Biological target: T1, Fad1p (FAD synthetase), bait or prey fusion strain of the Protein Interactome collection (S. cerevisiae) (UniProt P38913)
T1 sequence: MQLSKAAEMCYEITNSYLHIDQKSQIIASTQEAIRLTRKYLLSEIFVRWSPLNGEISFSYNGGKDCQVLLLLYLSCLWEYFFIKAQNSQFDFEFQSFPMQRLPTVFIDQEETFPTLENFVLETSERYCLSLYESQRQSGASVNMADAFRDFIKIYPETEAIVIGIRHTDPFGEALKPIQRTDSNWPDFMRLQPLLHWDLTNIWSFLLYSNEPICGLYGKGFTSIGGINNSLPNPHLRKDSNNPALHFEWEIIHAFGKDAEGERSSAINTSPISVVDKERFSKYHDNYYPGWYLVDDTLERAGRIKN
Test: split reporter; bait-prey fusion complementation giving methotrexate resistance (method adapted from Tarassov et al.); bait and prey strains mated, diploids spotted onto SD-Lys-Met plates with 200 ug/ml methotrexate

B1: Fpy1p, bait or prey fusion strain of the Protein Interactome collection (enzyme, UniProt Q03219 1-274)
chain: MVKVTAACIIIGDEVLNGKVVDTNSTFFAKYCFDHGIQLKEIATIGDDETQIVDTVRRLVKNYDFIISTGGIGPTHDDITYECMAKSFNLPCELDEECKERMRHKSDPEARLDADALKAHYQMATMPKGTNVKNYYVCDDLWVPICSISHKMYILPGIPQLFARMLKAFTPTLKKIYNLDKDPREYVRYFVRTHLTESQISKELKLIQDESTKVSEAIKIGSYPHFGMGFNTVSILGEKKDDSYLKSIVNRVVNNLEGEVISSELENKFSNQES
  binding: no binding

Reference: publication PMC6002036, “Characterization of a non-nudix pyrophosphatase points to interplay between flavin and NAD(H) homeostasis in Saccharomyces cerevisiae” (PLoS ONE, 2018)
